These are yes or no findings as the source states them, for the method shown. Some entries that bind do so weakly or less than the wild type.
Columns and labels:
[1] = target: His-tagged intracellular region of Fas receptor (UniProt P25445); experiment: SPOT peptide array, enzyme-linked blot with His-tagged Fas intracellular region; one of the three brightest spots
[2] = target: His-tagged intracellular region of Fas receptor (UniProt P25445); experiment: SPOT pepscan of FADD (15mers, shift 3) on membrane, probed with His-tagged Fas intracellular region 10 µg/ml, anti-His(mouse)/anti-mouse-HRP, enzyme-linked blot
[3] = target: His-tagged intracellular region of Fas receptor (UniProt P25445); experiment: SPOT length analysis of FADDp-11 (shortened at the C-terminus, the N-terminus and both), probed with His-tagged Fas intracellular region 10 µg/ml, anti-His(mouse)/anti-mouse-HRP, enzyme-linked blot
[4] = target: His-tagged intracellular region of Fas receptor (UniProt P25445); experiment: SPOT length analysis, enzyme-linked blot with His-tagged Fas intracellular region
[5] = target: His-tagged intracellular region of Fas receptor (UniProt P25445); experiment: SPOT length analysis, enzyme-linked blot with His-tagged Fas intracellular region at 10 µg/ml
[6] = target: His-tagged intracellular region of Fas receptor (UniProt P25445); experiment: SPOT pepscan of DAXX (15mers, shift 3) on membrane, probed with His-tagged Fas intracellular region 10 µg/ml, anti-His(mouse)/anti-mouse-HRP, enzyme-linked blot
[7] = target: His-tagged intracellular region of Fas receptor (UniProt P25445); experiment: SPOT peptide array, enzyme-linked blot with His-tagged Fas intracellular region at 10 µg/ml; one of the four brightest spots
[8] = target: His-tagged intracellular region of Fas receptor (UniProt P25445); experiment: SPOT length analysis of DAXXp-209 (shortened at the N-terminus, the C-terminus and both), probed with His-tagged Fas intracellular region 10 µg/ml, anti-His(mouse)/anti-mouse-HRP, enzyme-linked blot
[9] = target: His-tagged intracellular region of Fas receptor (UniProt P25445); experiment: SPOT length analysis of DAXXp-211 (shortened at the N-terminus, the C-terminus and both), probed with His-tagged Fas intracellular region 10 µg/ml, anti-His(mouse)/anti-mouse-HRP, enzyme-linked blot
[10] = target: His-tagged intracellular region of Fas receptor (UniProt P25445); experiment: SPOT peptide array, enzyme-linked blot with His-tagged Fas intracellular region at 10 µg/ml

The chains behind the UniProt entries cited, without tags or fusion partners. Residues count along the entry.
UniProt P25445, residues 191-335: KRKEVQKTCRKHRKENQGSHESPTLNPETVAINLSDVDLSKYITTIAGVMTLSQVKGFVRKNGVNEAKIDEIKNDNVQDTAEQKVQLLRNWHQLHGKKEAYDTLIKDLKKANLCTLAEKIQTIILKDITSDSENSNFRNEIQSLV

| binding [2] | binding [6] | binding [7] | Binder | also measured |
| --- | --- | --- | --- | --- |
| binds | – | – | LGRVGKRKLERVQSG [FADD pepscan spot no. 10] | binding [1]: binds |
| – | – | – | KRKLERVQSGLDL [FADDp-11 (spot no. 6)] | binding [3]: binds |
| – | – | – | KRKLERVQS [FADDp] | binding [4]: binds; binding [3]: binds; binding [5]: binds |
| – | binds | binds | SGPPCKKSRKEKKQT [DAXXp-209] | binding [8]: binds |
| – | binds | binds | PCKKSRKEKKQTGSG [DAXXp-210] | – |
| – | binds | – | KSRKEKKQTGSGPLG [DAXXp-211] | binding [9]: binds; binding [10]: binds |
| binds | – | – | RKLERVQSGLDLFSM [FADD pepscan spot no. 12] | binding [1]: binds |
| – | binds | binds | KEKKQTGSGPLGNSY [DAXXp-212] | – |
| binds | – | – | VGKRKLERVQSGLDL [FADDp15] | binding [10]: binds |

— patent US20130288979A1 (CENTRE NATIONAL DE LA RECHERCHE SCIENTIFIQUE CNRS, published 2013)
